Results are given in words; binding and its absence hold for the method and conditions named. A result given as binding can be weak or reduced; the word gives no strength.

Chains of the proteins cited; added tags and fusions are not shown. Lines headed by an entry give the natural chain unless they say otherwise; changes in a name come on top.
UniProt Q6DKI7: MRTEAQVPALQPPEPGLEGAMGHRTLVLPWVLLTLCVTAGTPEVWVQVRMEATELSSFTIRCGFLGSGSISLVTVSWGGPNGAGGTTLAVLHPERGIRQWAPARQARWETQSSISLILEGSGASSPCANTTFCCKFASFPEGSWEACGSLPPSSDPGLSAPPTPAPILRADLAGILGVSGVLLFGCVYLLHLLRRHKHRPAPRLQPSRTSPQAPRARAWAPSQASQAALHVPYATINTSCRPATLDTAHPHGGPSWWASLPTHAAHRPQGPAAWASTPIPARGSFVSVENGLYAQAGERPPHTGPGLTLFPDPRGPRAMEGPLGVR

This is an account of results in US20240343803A1.

The target of experiment [1] is human PVRIG-his (AcroBiosystems, Cat NO. PVG-H52H4) (human) (UniProt Q6DKI7). The experiment is described as follows: BIAcore.
The target is the same in experiment [2]. The experiment is described as follows: ELISA, coated human PVRIG-his.
For experiment [3] the target is unchanged. The experiment is described as follows: competition ELISA on coated human PVRIG-his; blocked ligand human PVRL2-mFc.
In experiment [4] the target is full-length cynomolgus monkey TIGIT on CHO-K1 cells (CHO-K1 cynomolgus monkey TIGIT) (cynomolgus monkey). The experiment is described as follows: FACS.
The target is the same in experiment [5]. The experiment is described as follows: FACS, CHO-K1 cynomolgus monkey TIGIT cells.

B1: SRF813-hIgG1 (antibody, V domains shown)
VH: QVQLVQSGAEVKKPGSSVKVSCKASGGTFSSAAISWVRQAPGQGLEWMGNIIPIVGIANYAQKFQGRVTITADESTSTAYMELSSLRSEDTAVYYCARDTGRGYTRHFWFDPWGQGTLVTVSS
VL: DIQMTQSPSSLSASVGDRVTITCRASQSISSYLNWYQQKPGKAPKLLIYAASSLQSGVPSRFSGSGSGTDFTLTISSLQPEDFATYYCQQSDILYTFGGGTKVEIK
With B1, the binding entry in experiment [1], in experiment [2] and in experiment [3] was “binds” throughout.

B2: TIGIT-070-H1L1 (antibody, V domains shown)
VH: EVQLVQSGAEVKKPGASVKVSCKASGYTFTNYYMHWVRQAPGQRLEWMGRIDPDSGGSKYNEKFKSRVTITVDKSASTAYMELSSLRSEDTAVYYCAREGHYGFYSDYWGQGTTVTVSS
VL: DIQMTQSPSSLSASVGDRVTITCRVSENIYSYLAWYQQKPGKSPKLLIYNAKTLAEGVPSRFSGSGSGTDFTLTISSLQPEDFATYYCQHHYGNPLTFGPGTKVDIK
For the molecule B2, the binding entry in experiment [4] was “binds”.

B3: COM701-hIgG4 (antibody, V domains shown)
VH: QVQLVQSGAEVKKPGASVKVSCKASGYTFTDYNINWVRQAPGQGLEWMGYIYPYIGGSGYAQKFQGRVTMTRDTSTSTVYMELSSLRSEDTAVYYCAREDKTARNAMDYWGQGTLVTVSS
VL: DIQMTQSPSSLSASVGDRVTITCRVSENIYSNLAWYQQKPGKAPKLLIYEATNLAEGVPSRFSGSGSGTDFTLTISSLQPEDFATYYCQHFWGTPYTFGQGTKLEIK
Consider B3, for which the binding result in experiment [2] and in experiment [3] was “binds” in each case.

B4: COM701-hIgG1 (antibody, V domains shown)
VH: QVQLVQSGAEVKKPGASVKVSCKASGYTFTDYNINWVRQAPGQGLEWMGYIYPYIGGSGYAQKFQGRVTMTRDTSTSTVYMELSSLRSEDTAVYYCAREDKTARNAMDYWGQGTLVTVSS
VL: DIQMTQSPSSLSASVGDRVTITCRVSENIYSNLAWYQQKPGKAPKLLIYEATNLAEGVPSRFSGSGSGTDFTLTISSLQPEDFATYYCQHFWGTPYTFGQGTKLEIK
Turning to B4, the binding entry in experiment [1] and in experiment [2] was “binds” in each case.

B5: TIGIT-002-H4L3 (antibody, V domains shown)
VH: EVQLQESGPGLVKPSETLSLTCAVSGYSITSDSWNWIRQPPGKKLEYIGYISYSGNTYYNPSLKSRVTISRDTSKNQFSLKLSSVTAADTAVYYCARLDFSNYGGAVDYWGQGTTVTVSS
VL: DIVMTQSPDSLAVSLGERATINCKASQNVRTAVAWYQQKPGQSPKLMIYSASYRYTGVPDRFSGSGSGTDFTLTISSLQAEDVAVYYCQQYYTTPWTFGGGTKVEIK
In the case of B5, the binding entry in experiment [4] and in experiment [5] was “binds” each time.

B6: TIGIT-005-H2L1d (antibody, V domains shown)
VH: EVQLVQSGAEVKKPGASVKVSCKASGYAFTNYLIEWVRQAPGQRLEWMGVINPGSGGTNYKEKFKGRVTITADKSSSTAYMELSSLRSEDTAVYYCARGEYFFFDYWGQGTTVTVSS
VL: DIVMTQSPDSLAVSLGERATINCKASQHVSNAVAWYQHKPGQSPKLLIYSASYRYTGVPDRFSGSGSGTDFTLTISSLQAEDVAVYYCQQHYNTPHTFGGGTKVEIK
As for B6, the binding result in experiment [4] and in experiment [5] was “binds” throughout.
